PubChem BioAssay AID1259254 – NCATS – 2017

Purpose: 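Gene knock-downs that lead to re-replication, shown by excess G2 DNA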 (primary screen)
System: human HCT116 colorectal cancer cells
Reagents: single siRNA against human genes
Timing: 3 days
Detection: 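Imaged Hoechst DNA stain sorts each cell into a cycle phase by DNA amount; per plate, G2 fraction set to 0% for non-targeting and 100% for GMNN siRNA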
Direction: G2 robust z-score and G2 cells, % of GMNN control: higher = more G2 cells, more excess DNA replication
Hit rule: 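Active siRNAs have a G2 robust z of 5 or more median absolute deviations over the median, which in these data means about 38% or higher of GMNN control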
This is one part, drawn at random, of about 59,000 deposited reagents. In the full data, about 1,550 (2.6%) were called active. 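G2 share is only a proxy for re-replication; each gene was hit by three separate siRNAs, and active genes were retested.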 The numbers tell different reagents against one gene apart. Further read-outs or replicates are left out here. The record does not give: the amount of reagent.

For DEK #1, how do the results read?
G2 robust z-score: -0.985; G2 cells, % of GMNN control: -3.96; activity call: inactive

How did the screen score DEK #2?
G2 robust z-score: -0.607; G2 cells, % of GMNN control: -1.3; activity call: inactive

What is on record for DEK #3?
G2 robust z-score: -1.1; G2 cells, % of GMNN control: -4.78; activity call: inactive

Which result is listed for YEATS2 #1?
G2 robust z-score: 1.88; G2 cells, % of GMNN control: 16.2; activity call: inactive

What did the screen give for YEATS2 #2?
G2 robust z-score: -1.09; G2 cells, % of GMNN control: -4.72; activity call: inactive

Which result is listed for YEATS2 #3?
G2 robust z-score: -0.0246; G2 cells, % of GMNN control: 2.79; activity call: inactive

For PEX11B #1, what was measured?
G2 robust z-score: -0.392; G2 cells, % of GMNN control: 0.209; activity call: inactive

With PEX11B #2, how do the results read?
G2 robust z-score: -0.345; G2 cells, % of GMNN control: 0.543; activity call: inactive

For PEX11B #3, how do the results read?
G2 robust z-score: 0.992; G2 cells, % of GMNN control: 9.95; activity call: inactive

What is on record for ARMCX2 #1?
G2 robust z-score: 0.383; G2 cells, % of GMNN control: 5.66; activity call: inactive

How did the screen score ARMCX2 #2?
G2 robust z-score: -0.999; G2 cells, % of GMNN control: -4.06; activity call: inactive

For ARMCX2 #3, how do the results read?
G2 robust z-score: 0.706; G2 cells, % of GMNN control: 7.93; activity call: inactive

Ordered by “G2 robust z-score” (descending): 2 of the entries above.
YEATS2 #1 — G2 robust z-score: 1.88; G2 cells, % of GMNN control: 16.2; activity call: inactive
DEK #3 — G2 robust z-score: -1.1; G2 cells, % of GMNN control: -4.78; activity call: inactive

Further records follow.
What is on record for PTOV1 #1?
G2 robust z-score: -0.0208; G2 cells, % of GMNN control: 2.82; activity call: inactive

How did the screen score PTOV1 #2?
G2 robust z-score: -1.21; G2 cells, % of GMNN control: -5.58; activity call: inactive

Which result is listed for PTOV1 #3?
G2 robust z-score: -0.901; G2 cells, % of GMNN control: -3.37; activity call: inactive

What did the screen give for KRT83 #1?
G2 robust z-score: 3.26; G2 cells, % of GMNN control: 25.9; activity call: inactive

For KRT83 #2, what was measured?
G2 robust z-score: -0.699; G2 cells, % of GMNN control: -1.95; activity call: inactive

What did the screen give for KRT83 #3?
G2 robust z-score: -0.615; G2 cells, % of GMNN control: -1.36; activity call: inactive

With KRT83 #4, what does the deposit list?
G2 robust z-score: 0.19; G2 cells, % of GMNN control: 4.3; activity call: inactive

Which result is listed for KRT83 #5?
G2 robust z-score: -0.817; G2 cells, % of GMNN control: -2.78; activity call: inactive

How did the screen score KRT83 #6?
G2 robust z-score: -1.24; G2 cells, % of GMNN control: -5.74; activity call: inactive

With B4GALT2 #1, what was measured?
G2 robust z-score: 0.265; G2 cells, % of GMNN control: 4.83; activity call: inactive

What is on record for B4GALT2 #2?
G2 robust z-score: -0.1; G2 cells, % of GMNN control: 2.26; activity call: inactive

How did the screen score B4GALT2 #3?
G2 robust z-score: -0.664; G2 cells, % of GMNN control: -1.71; activity call: inactive
